The target in this experiment is T1, GST-ZNF608 (aa 1-600) (human) (UniProt Q9ULD9).
T1 sequence: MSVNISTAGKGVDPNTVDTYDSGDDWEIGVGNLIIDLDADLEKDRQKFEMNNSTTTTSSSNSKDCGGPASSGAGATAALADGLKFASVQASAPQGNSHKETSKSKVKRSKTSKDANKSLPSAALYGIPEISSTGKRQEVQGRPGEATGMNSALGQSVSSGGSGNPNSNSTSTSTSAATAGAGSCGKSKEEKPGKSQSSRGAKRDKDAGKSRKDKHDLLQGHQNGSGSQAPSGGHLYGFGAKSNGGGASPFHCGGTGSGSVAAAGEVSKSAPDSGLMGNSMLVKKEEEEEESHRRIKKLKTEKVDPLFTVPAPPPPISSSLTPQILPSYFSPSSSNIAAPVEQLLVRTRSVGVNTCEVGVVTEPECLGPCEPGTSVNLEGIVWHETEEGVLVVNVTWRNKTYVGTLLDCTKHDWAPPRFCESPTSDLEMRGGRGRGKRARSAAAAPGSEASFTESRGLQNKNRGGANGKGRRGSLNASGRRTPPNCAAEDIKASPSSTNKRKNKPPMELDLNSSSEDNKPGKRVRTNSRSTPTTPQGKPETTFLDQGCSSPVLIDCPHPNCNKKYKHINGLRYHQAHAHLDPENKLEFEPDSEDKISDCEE
In words: pull-down; GST-ZNF608 (aa 1-600) mixed with radiolabeled C-terminus of human Atrophin-1 (Figure 5H); only the target purified.

No constants are given. Whether binding was seen depends on the method and setting. In cells and extracts the contact can be indirect. Some results given as binding are weak or reduced against the parent protein; the word gives no strength. Sequences can lack the tags named with a protein.

B1: human Atrophin-1 aa 600-1191 (domain or fragment, UniProt P54259 600-1190)
chain: PFPPVPTVTTSSATLSTVIATVASSPAGYKTASPPGPPPYGKRAPSPGAYKTATPPGYKPGSPPSFRTGTPPGYRGTSPPAGPGTFKPGSPTVGPGPLPPAGPSGLPSLPPPPAAPASGPPLSATQIKQEPAEEYETPESPVPPARSPSPPPKVVDVPSHASQSARFNKHLDRGFNSCARSDLYFVPLEGSKLAKKRADLVEKVRREAEQRAREEKEREREREREKEREREKERELERSVKLAQEGRAPVECPSLGPVPHRPPFEPGSAVATVPPYLGPDTPALRTLSEYARPHVMSPGNRNHPFYVPLGAVDPGLLGYNVPALYSSDPAAREREREARERDLRDRLKPGFEVKPSELEPLHGVPGPGLDPFPRHGGLALQPGPPGLHPFPFHPSLGPLERERLALAAGPALRPDMSYAERLAAERQHAERVAALGNDPLARLQMLNVTPHHHQHSHIHSHLHLHQQDAIHAASASVHPLIDPLASGSHLTRIPYPAGTLPNPLLPHPLHENEVLRHQLFAAPYRDLPASLSAPMSAAHQLQAMHAQSAELQRLALEQQQWLHAHHPLHSVPLPAQEDYYSHLKKESDKPL
modifications: radiolabeled
In the case of B1, the binding entry is reported as “binds”.

For the origin of these results see paper PMC1868043.
